Laboratory results as given in patent US20060040871A1, “Bacterial transforming agent” (priority 2003, published 2006).
Some entries share one result that the patent states for a list of compounds.

System: MRSA with intermediate resistance to glycopeptides
Assay: MIC of vancomycin or teicoplanin for MRSA with intermediate resistance to glycopeptides grown with GBE or NAGly (Table 4)
Format: cell-based, Staphylococcus aureus
Settings: BTA at 0.001M

Structure (SMILES): NCC(=O)OCc1ccccc1 [GBE, Glycine Benzyl Ester]
- MICs of vancomycin (VISA) and teicoplanin (TISA) relative to the threshold that defines intermediate resistance: < 8 mg/I
